Assay results reported in patent publication US12576253B2, “Drug delivery device with intravesical tolerability” (priority 2009, dated 2026).

Details: rabbit, 2 mg device for three days or 4 mg device for six days, ELISA

SMILES: CCN(CC)CC(=O)Nc1c(C)cccc1C [lidocaine]
- lidocaine/tissue concentration in bladder tissue and nearby genitourinary sites (kidneys, ureters, penile urethra): higher concentrations
- lidocaine/tissue concentration in further sites (heart, spinal cord): lower concentrations
